From PubChem BioAssay AID1671190 (National Center for Advancing Translational Sciences (NCATS), 2021)
In all, about 580,000 compounds went through this assay and about 6,100 (1.1%) were called active. This list was built around the results that the source calls inconclusive (neither active nor inactive); the mix of calls is not that of the screen. Calls follow the shape of the dose curve; as a rule, active = well fitted inhibition curve with a large enough effect; inconclusive = small, poorly fitted or top-dose-only effect, or another doubt; inactive = no such curve, though single readings can be large or run the other way. Potencies beside an inconclusive call are fits to weak or partial responses and may not hold up.

Chains of the proteins cited; added tags and fusions are not shown. Lines headed by an entry give the natural chain unless they say otherwise; changes in a name come on top.
UniProt P18054: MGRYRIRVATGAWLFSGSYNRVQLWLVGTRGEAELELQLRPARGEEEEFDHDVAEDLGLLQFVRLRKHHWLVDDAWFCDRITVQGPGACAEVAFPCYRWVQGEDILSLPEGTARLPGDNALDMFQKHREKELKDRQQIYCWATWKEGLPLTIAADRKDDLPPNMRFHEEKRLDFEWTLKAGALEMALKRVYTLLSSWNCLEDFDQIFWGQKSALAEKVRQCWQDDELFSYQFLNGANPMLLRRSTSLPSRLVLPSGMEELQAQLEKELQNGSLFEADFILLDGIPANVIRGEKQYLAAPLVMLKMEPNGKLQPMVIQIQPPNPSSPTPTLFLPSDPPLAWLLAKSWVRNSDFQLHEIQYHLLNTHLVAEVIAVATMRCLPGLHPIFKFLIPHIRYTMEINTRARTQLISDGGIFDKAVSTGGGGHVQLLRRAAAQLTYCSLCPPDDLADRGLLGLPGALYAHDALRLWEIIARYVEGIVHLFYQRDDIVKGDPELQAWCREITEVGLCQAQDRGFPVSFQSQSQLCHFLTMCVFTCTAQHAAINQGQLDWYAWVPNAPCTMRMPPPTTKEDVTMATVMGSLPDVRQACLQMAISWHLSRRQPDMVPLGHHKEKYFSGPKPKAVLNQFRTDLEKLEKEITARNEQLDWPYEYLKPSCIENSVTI

What follows are compounds tested against Polyunsaturated fatty acid lipoxygenase ALOX12 (Homo sapiens) (UniProt P18054) (assay: Primary qHTS assay for inhibitors of human arachidonate 12S-lipoxygenase (ALOX12): Round 2). Details: purified 12hLO, xylenol orange hydroperoxide absorbance; activity change, negative = inhibition: at 108 µM (top of the series) unless noted.
Summary of the method: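 Purified human 12hLO at 150 nM in 25 mM Hepes, 0.01% Triton X-100, pH 7.0, preincubated 15 min at room temperature with compound. Reaction started with 40 uM arachidonic acid, 30 min at room temperature. Hydroperoxide measured by Fe-xylenol orange, 573/405 nm absorbance ratio.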
% is scaled to controls: 0 for no effect and ±100 for the full control effect; potency is read from the fitted curve at half-maximal effect.

Compound | activity change, negative = inhibition | Potency
CCCCCn1c(CNC(C)=O)nc2ccccc21 | inactive: 23% | –
O=C1CCc2cc(-c3csc(NC4CC4)n3)ccc2N1 | – | active: 35.5 µM
O=C(c1ccco1)N1CCN(Cc2nnc(-c3ccccc3F)o2)CC1 | – | inconclusive: 35.5 µM [inhibitor, single point]
Cc1ccc(-n2ncc3c(N4CCN(c5ccccc5)CC4)ncnc32)c(C)c1 | – | inconclusive: 35.5 µM [inhibitor, partial curve, poor fit]
CCCCn1c(N)c(N(CC(C)C)C(=O)c2oc3c(Cl)cccc3c2C)c(=O)[nH]c1=O | – | inconclusive: 79.4 µM [inhibitor, single point]
CCCCOc1ccc(NC(=O)C(C)Sc2ncnc3nc[nH]c23)cc1 (stereo not given) | inactive: -4.56% | –
Cc1ccccc1-c1cc(-c2ccccc2O)n[nH]1 | – | inconclusive: 1 µM [inhibitor, full curve, poor fit]
COc1ccc(OC)c(C2=NNC(=NCc3ccc4c(c3)OCO4)SC2)c1 | – | inconclusive: 63.1 µM [inhibitor, partial curve, poor fit]
COC(=O)Cn1c(=NC(=O)c2cc(OC)cc(OC)c2)sc2cc(OC)ccc21 | inactive: -8.1% | –
COc1cccc(C(=O)NOCc2ccccc2)c1OC | – | inconclusive: 25.1 µM [inhibitor, single point]
NCCS(=O)O | – | inactive
Cc1oc2c(c1C(=O)NCCN1CCOCC1)CN(Cc1cccc(F)c1)CC2 | – | inconclusive: 10 µM [inhibitor, partial curve]
CCOc1ccccc1NC(=O)C(=O)/C=C(\O)c1cc(OC)ccc1OC | inactive: -6.58% | –
O=C(Cc1cccc(F)c1)NC1C2CC3CC(C2)CC1C3 (stereo not given) | – | inconclusive: 141 µM [inhibitor, partial curve, poor fit]
CC(C)(C)c1ccc(OCCn2cc(C(=O)C(F)(F)F)c3cc(Br)ccc32)cc1 | inactive: 5.98% | –
Cc1ccc(-c2nn(CC(=O)NCc3ccccc3)c3c2cnc2ccc(F)cc23)cc1C | – | inconclusive: 126 µM [inhibitor, single point]
N#Cc1nc(COc2ccc(Br)cc2)oc1NCCCN1CCOCC1 | inactive: -4% | –
Cc1nn2c(=O)cc(CN3CCN(c4ncccn4)CC3)nc2s1 | – | inconclusive: 100 µM [inhibitor, single point]
CCOc1ccc(/C(O)=C2\C(=O)C(=O)N(Cc3cccnc3)C2c2ccc(C)cc2)cc1Cl (stereo not given) | – | inconclusive: 39.8 µM [inhibitor, partial curve, poor fit]
Cc1cc(NCCCCCCCNc2cc(C)nc3cc([N+](=O)[O-])ccc23)c2ccc([N+](=O)[O-])cc2n1 | – | inconclusive: 39.8 µM [inhibitor, partial curve, poor fit]
O=C(c1ccccc1)c1c[nH]c(C(=O)C(Cl)(Cl)Cl)c1 | – | inconclusive: 50.1 µM [inhibitor, partial curve, poor fit]
CCCCOCCCNC(=O)C[C@@H]1C[C@@]2(C(=O)OC)CC(C)(C)CC=C2N(Cc2ccco2)C1=O | inactive: 9.56% | –

Compound | activity change, negative = inhibition | Potency
Cc1c(CCOC(=O)c2ccc([N+](=O)[O-])cc2)sc[n+]1CC(=O)c1ccccc1 | inactive: -17.2% | –
Cc1nnsc1CN(C)C(=O)Cn1nc(C)n(Cc2ccccc2)c1=O | inactive: 14.5% | –
CCCc1noc(-c2ccn3c(CNC(=O)c4ccccc4F)nnc3c2)n1 | – | active: 50.1 µM
O=C(Nc1cccc(Cl)c1N1CCCC1)c1ccc(Br)o1 | – | inconclusive: 50.1 µM [inhibitor, partial curve, poor fit]
CCCS(=O)(=O)Nc1cccc(-c2cn3ccc(C)cc3n2)c1 | – | inconclusive: 141 µM [inhibitor, partial curve, poor fit]
CCOc1cc(C(c2c(C)[nH]c3ccccc23)c2c(C)[nH]c3ccccc23)ccc1O | – | active: 7.94 µM
COC(=O)[C@]1(C)N[C@H](CN(C)C(=O)c2ccc(C)cc2)[C@@H]2C(=O)N(C)C(=O)[C@@H]21 | – | inconclusive: 39.8 µM [inhibitor, partial curve, poor fit]
COc1ccc(-c2cc(C(=O)O)c3cccc(C)c3n2)cc1 | – | inconclusive: 39.8 µM [inhibitor, partial curve, poor fit]
O=C(Nc1cccc(OCC2CCCO2)c1)C1CCCC1 (stereo not given) | inactive: -30.4% | –
COc1ccc2c(-c3ccccc3)cc(N3CCOCC3)nc2c1 | – | active: 1.78 µM
O=S(=O)(NCc1cccnc1)c1ccc2ccccc2c1 | inactive: 16.6% | –
O=C(COC(=O)C1COc2ccccc2O1)NC(=O)NC1CCCCC1 (stereo not given) | – | inconclusive: 56.2 µM [inhibitor, partial curve, poor fit]
COCCOC(=O)C1=C(C)NC(C)=C(C(=O)OCCOC)C1/C=C/c1ccccc1OC | inactive: 125% | –
CC(C)N1CN=C(Nc2nc3ccccc3o2)NC1 | – | inconclusive: 17.8 µM [inhibitor, partial curve, poor fit]
CCOc1ccccc1N1CCN(C(=O)c2cn(CC3CCCCC3)nn2)CC1 | inactive: 14.6% | –
Cc1ccc(NC(=O)c2cccc(F)c2)cc1S(=O)(=O)N1CCCCCC1 | – | inconclusive: 0.316 µM [inhibitor, full curve, poor fit]
COC(=O)c1ccc(CN2C[C@H](Sc3ccccn3)C[C@H]2C(=O)N(C)C)cc1 | – | inconclusive: 44.7 µM [inhibitor, partial curve, poor fit]
CC(O)(c1ccc(F)c(F)c1)c1nc(-c2ccc(S(C)(=O)=O)cc2)cs1 (stereo not given) | – | inconclusive: 112 µM [inhibitor, partial curve, poor fit]
O=C1NC(c2ccccc2Cl)=N/C1=C/c1ccco1 | – | inconclusive: 89.1 µM [inhibitor, single point]
CCC(C)C(=O)Nc1nc(C)c(-c2csc(Nc3ccc(Cl)cc3)n2)s1 (stereo not given) | – | inconclusive: 44.7 µM [inhibitor, partial curve, poor fit]
Fc1ccc(-c2ccc(CNCC3CCNCC3)o2)cc1Cl | – | inconclusive: 39.8 µM [inhibitor, partial curve, poor fit]
COc1nc(C)ccc1-c1noc(-c2cccnc2)n1 | – | inconclusive: 31.6 µM [inhibitor, partial curve, poor fit]

Compound | activity change, negative = inhibition | Potency
CC[C@@H]1C=C(C(=O)O)[C@H](c2ccc(Br)cc2)N1S(=O)(=O)c1ccc(C)cc1 | – | inconclusive: 56.2 µM [inhibitor, partial curve, poor fit]
CCn1c(C(O)c2ccccc2)nc2ccccc21 (stereo not given) | inactive: 21.4% | –
COCc1cccc(C(=O)N2CC[C@@]3(O)CCN(S(C)(=O)=O)C[C@H]3C2)n1 | – | inconclusive: 7.94 µM [inhibitor, full curve]
Cc1cc(Br)cn2c(Cc3ccccc3)c(-c3ccc(C#N)cc3)nc12 | – | inconclusive: 44.7 µM [inhibitor, partial curve, poor fit]
CNC(=O)CSc1nc(NC2CC2)c2ccccc2n1 | inactive: -20.5% | –
COc1ccc(-c2ncn(CCc3ccccc3OC)c2C(C)C)cc1 | – | inconclusive: 50.1 µM [inhibitor, partial curve, poor fit]
C(=N\NC1=NCCN1)/c1ccncc1 | – | inconclusive: 4.47 µM [inhibitor, full curve, poor fit]
CCN(CC)CCCN1C(=O)C(=O)/C(=C(/O)c2ccc3c(c2)OCCO3)C1c1ccco1 (stereo not given) | – | inconclusive: 0.447 µM [inhibitor, partial curve, poor fit]
COc1ccc(-c2nc3cc(C)ccn3c2NC2CCCCC2)cc1SC1CCCCC1 | – | inconclusive: 44.7 µM [inhibitor, partial curve, poor fit]
OC1=C(O)c2nc3cc(C(F)(F)F)ccc3nc21 | – | inconclusive: 50.1 µM [inhibitor, partial curve, poor fit]
COc1ccc(C2C=C(c3ccc(Cl)cc3)Nc3nc(-c4ccc(Cl)cc4)nn32)cc1 (stereo not given) | – | active: 5.62 µM
O=C(/C=C/c1ccc([N+](=O)[O-])cc1)NCc1ccco1 | – | inconclusive: 126 µM [inhibitor, partial curve, poor fit]
Cc1ccc(C(OCC(O)CNCc2ccc(F)cc2)c2ccccc2)cc1 (stereo not given) | – | inconclusive: 3.98 µM [inhibitor, full curve, poor fit]
CCOC(=O)c1ccc(NC(=O)CCS(=O)(=O)c2cccc3nonc23)cc1 | – | inconclusive: 126 µM [inhibitor, partial curve, poor fit]
CN1CCN(C(=O)CSc2nc(-c3cccs3)ccc2C#N)CC1 | – | inconclusive: 100 µM [inhibitor, single point]
CC(=O)N1CCC(C(=O)NCC2(c3ccc(F)cc3)CCC2)CC1 | – | inconclusive: 44.7 µM [inhibitor, single point]
COc1ccccc1CNC(=O)C(C)n1c(=O)cc(-c2ccccc2)c2c(C)nn(C)c21 (stereo not given) | – | inconclusive: 126 µM [inhibitor, partial curve, poor fit]
CCN1C(=O)[C@H]2[C@@H](c3ccc(-c4cccc(Cl)c4)c(OC)c3)N[C@@](CC(C)C)(C(=O)OC)[C@H]2C1=O | – | inconclusive: 0.398 µM [inhibitor, full curve, poor fit]
Cc1cc(C(=O)NCC2(COc3cccnc3)C[C@@H](O)[C@@H](O)C2)n(C)n1 (stereo not given in full) | – | inconclusive: 11.2 µM [inhibitor, full curve, poor fit]
Cc1[nH]c2ccccc2c1C(=O)/C(C#N)=C\c1cccc(Br)c1 | – | inconclusive: 0.631 µM [inhibitor, full curve, poor fit]
CN1CC(=O)N(C2CCNC2)Cc2c1ncnc2N1CCN(c2ncccn2)CC1 (stereo not given) | – | inconclusive: 2.82 µM [inhibitor, full curve]

3 compounds out of the list, sorted by heavy-atom count, high to low:
Compound | activity change, negative = inhibition | Potency
COc1ccc(-c2nc3cc(C)ccn3c2NC2CCCCC2)cc1SC1CCCCC1 | – | inconclusive: 44.7 µM [inhibitor, partial curve, poor fit]
O=C(/C=C/c1ccc([N+](=O)[O-])cc1)NCc1ccco1 | – | inconclusive: 126 µM [inhibitor, partial curve, poor fit]
C(=N\NC1=NCCN1)/c1ccncc1 | – | inconclusive: 4.47 µM [inhibitor, full curve, poor fit]
